Paper PMC11922775
Like-named read-outs stand apart in the source and are kept apart here. These are yes or no findings as the source states them, for the method shown. In cells and extracts the contact can be indirect. Some results given as binding are weak or reduced against the parent protein; the word gives no strength.

Sequences of proteins named here, by UniProt entry; tags and fusion partners are left off.
UniProt Q61025: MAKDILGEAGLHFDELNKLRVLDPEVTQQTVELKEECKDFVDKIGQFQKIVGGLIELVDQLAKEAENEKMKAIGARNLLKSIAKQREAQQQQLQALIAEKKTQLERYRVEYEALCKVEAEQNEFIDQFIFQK

T1: Tubby-like protein 3 (TULP3) (mouse (endogenous in N2a)) (UniProt O88413)
T1 sequence: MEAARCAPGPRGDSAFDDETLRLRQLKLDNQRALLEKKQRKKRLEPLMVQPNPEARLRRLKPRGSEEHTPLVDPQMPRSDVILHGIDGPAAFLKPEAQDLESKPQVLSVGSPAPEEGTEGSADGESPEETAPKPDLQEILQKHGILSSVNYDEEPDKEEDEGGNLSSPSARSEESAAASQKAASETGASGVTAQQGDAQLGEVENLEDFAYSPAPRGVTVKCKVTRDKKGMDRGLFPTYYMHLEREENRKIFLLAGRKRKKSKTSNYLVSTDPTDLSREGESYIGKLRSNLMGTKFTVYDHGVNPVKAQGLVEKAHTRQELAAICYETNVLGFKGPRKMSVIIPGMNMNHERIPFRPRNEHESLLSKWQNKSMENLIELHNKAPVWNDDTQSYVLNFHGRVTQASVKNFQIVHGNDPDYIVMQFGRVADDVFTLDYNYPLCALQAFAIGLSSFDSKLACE


Experiments:
[1] = molecular target: T1, Tubby-like protein 3 (TULP3) (mouse (endogenous in N2a)); experiment: co-IP; rabbit anti-TULP3 antibody (1 µg) on Dynabeads Protein G, incubated with 400 µg of N2a cell lysate (RIPA, protease/phosphatase inhibitors) overnight at 4 °C, three washes, western blot; control rabbit IgG
[2] = molecular target: T1, Tubby-like protein 3 (TULP3) (mouse (endogenous in N2a)); experiment: as above; remark: listed apart in the source

| Molecule | binding [1] | binding [2] |
| --- | --- | --- |
| IFT20 (from UniProt Q61025 1-132) | binds |  |
| GPR158 (receptor, UniProt Q8C419 25-1200) SLDPPGRPDSPRERTPRGKQHGQQLPRASAPDPSIPWSRSTDGTILAQKLAEEVPVDVASYLYTGDFHQLKRANCSGRYELAGLPGKSPSLASSHPSLHGALDTLTHATNFLNMMLQSNKSREQTVQDDLQWYQALVRSLLEGEPSISRAAITFSTESLSTPAPQVFLQATREESRILLQDLSSSAHHLANATLETEWFHGLRRKWRPHLHRRGSNQGPRGLGHSWRRRDGLGGDRSHVKWSPPYLECENGSYKPGWLVTLSAAFYGLQPNLVPEFRGVMKVDISLQKVDIDQCSSDGWFSGTHKCHLNNSECMPIKGLGFVLGAYQCICKAGFYHPRVFSVNNFQRRGPDHHFSGSTKDVSEETHVCLPCREGCPFCADDRPCFVQEDKYLRLAIISFQALCMLLDFVSMLVVYHFRKAKSIRASGLILLETILFGSLLLYFPVVILYFEPSTFRCILLRWARLLGFATVYGTVTLKLHRVLKVFLSRTAQRIPYMTGGRVMRMLAVIVLVVFWFLVGWTSSMCQNLERDILLVGQGQTSDHLTFNMCLIDRWDYMTAVAEFLFLLWGIYLCYAVRTVPSAFHEPRYMAVAVHNELIITAIFHTIRFVLASRLQPDWMLMLYFAHAHLTVTVTIGLLLIPKFSHSSNNPRDDIATEAYEDELDMGRSGSYLNSSINSAWSEHSLDPEDIRDELKKLYAQLEIYKRKKMITNNPHLQKKRCSKKGLGRSIMRRITEIPETVSRQCSKEDKEGTDHSAAKGTGLVRKNPTESSGNTGRPKEESLKNRVFSLKKSHSTYDHVRDQTVESSSLPMESQEEEATENSTLESLSSKKLTQKLKEDSEAESTESVPLVCKSASAHNLSSEKKPGHPRTSMLQKSLSVIASAKEKTLGLAGKTQTLVMEDRAKSQKPKDRETIRKYSNSDNVETIPNSGHMEEPRKPQKSGIMKQQRVSLPTANPDVSSGITQIKDNFDIGEVCPWEVYDLTPGPMPSEPKAQKHVSIAASEVEQNPASFLKEKSYHKSKATEGLYQANHKSIDKTEVCPWEIHSQSLLEDENRLISKTPVLPGRAREENGSQLYTTNMCAGQYEELPHKVVAPKVENENLNQMGDQEKQTSSSVDIIPGSCNSSNNSHQPLTSRAEVCPWEFEPLEQPNAERSVTLPASSALSANKIPGPQK |  | binds |
